Results are given in words; binding and its absence hold for the method and conditions named. Binding seen in cells or lysates may run through a third protein. Here binding means that the protein was enriched with, or labelled near, the bait; the list need not be complete.
Biological target: nuclear receptor corepressor 1 (NCoR1)-FLAG, full length, expressed in MEF cells (mouse) (UniProt Q60974)
Assay: affinity purification with mass spectrometry; MEF cells transfected with pcDNA-GFP-FLAG (control) or pCMX-NCoR1-FLAG, lysed 48 h later (25 mM Tris pH 7.9, 150 mM NaCl, 1 mM EDTA, 1% Triton X-100); NCoR1 precipitated with anti-NCoR1 antibody and Protein A/G magnetic beads overnight at 4 °C, eluted with 0.1 M glycine pH 2.2; LC-MS/MS, three independent samples

Protein sequences, listed by entry. Tags and fused reporters are not part of them.
UniProt Q60974: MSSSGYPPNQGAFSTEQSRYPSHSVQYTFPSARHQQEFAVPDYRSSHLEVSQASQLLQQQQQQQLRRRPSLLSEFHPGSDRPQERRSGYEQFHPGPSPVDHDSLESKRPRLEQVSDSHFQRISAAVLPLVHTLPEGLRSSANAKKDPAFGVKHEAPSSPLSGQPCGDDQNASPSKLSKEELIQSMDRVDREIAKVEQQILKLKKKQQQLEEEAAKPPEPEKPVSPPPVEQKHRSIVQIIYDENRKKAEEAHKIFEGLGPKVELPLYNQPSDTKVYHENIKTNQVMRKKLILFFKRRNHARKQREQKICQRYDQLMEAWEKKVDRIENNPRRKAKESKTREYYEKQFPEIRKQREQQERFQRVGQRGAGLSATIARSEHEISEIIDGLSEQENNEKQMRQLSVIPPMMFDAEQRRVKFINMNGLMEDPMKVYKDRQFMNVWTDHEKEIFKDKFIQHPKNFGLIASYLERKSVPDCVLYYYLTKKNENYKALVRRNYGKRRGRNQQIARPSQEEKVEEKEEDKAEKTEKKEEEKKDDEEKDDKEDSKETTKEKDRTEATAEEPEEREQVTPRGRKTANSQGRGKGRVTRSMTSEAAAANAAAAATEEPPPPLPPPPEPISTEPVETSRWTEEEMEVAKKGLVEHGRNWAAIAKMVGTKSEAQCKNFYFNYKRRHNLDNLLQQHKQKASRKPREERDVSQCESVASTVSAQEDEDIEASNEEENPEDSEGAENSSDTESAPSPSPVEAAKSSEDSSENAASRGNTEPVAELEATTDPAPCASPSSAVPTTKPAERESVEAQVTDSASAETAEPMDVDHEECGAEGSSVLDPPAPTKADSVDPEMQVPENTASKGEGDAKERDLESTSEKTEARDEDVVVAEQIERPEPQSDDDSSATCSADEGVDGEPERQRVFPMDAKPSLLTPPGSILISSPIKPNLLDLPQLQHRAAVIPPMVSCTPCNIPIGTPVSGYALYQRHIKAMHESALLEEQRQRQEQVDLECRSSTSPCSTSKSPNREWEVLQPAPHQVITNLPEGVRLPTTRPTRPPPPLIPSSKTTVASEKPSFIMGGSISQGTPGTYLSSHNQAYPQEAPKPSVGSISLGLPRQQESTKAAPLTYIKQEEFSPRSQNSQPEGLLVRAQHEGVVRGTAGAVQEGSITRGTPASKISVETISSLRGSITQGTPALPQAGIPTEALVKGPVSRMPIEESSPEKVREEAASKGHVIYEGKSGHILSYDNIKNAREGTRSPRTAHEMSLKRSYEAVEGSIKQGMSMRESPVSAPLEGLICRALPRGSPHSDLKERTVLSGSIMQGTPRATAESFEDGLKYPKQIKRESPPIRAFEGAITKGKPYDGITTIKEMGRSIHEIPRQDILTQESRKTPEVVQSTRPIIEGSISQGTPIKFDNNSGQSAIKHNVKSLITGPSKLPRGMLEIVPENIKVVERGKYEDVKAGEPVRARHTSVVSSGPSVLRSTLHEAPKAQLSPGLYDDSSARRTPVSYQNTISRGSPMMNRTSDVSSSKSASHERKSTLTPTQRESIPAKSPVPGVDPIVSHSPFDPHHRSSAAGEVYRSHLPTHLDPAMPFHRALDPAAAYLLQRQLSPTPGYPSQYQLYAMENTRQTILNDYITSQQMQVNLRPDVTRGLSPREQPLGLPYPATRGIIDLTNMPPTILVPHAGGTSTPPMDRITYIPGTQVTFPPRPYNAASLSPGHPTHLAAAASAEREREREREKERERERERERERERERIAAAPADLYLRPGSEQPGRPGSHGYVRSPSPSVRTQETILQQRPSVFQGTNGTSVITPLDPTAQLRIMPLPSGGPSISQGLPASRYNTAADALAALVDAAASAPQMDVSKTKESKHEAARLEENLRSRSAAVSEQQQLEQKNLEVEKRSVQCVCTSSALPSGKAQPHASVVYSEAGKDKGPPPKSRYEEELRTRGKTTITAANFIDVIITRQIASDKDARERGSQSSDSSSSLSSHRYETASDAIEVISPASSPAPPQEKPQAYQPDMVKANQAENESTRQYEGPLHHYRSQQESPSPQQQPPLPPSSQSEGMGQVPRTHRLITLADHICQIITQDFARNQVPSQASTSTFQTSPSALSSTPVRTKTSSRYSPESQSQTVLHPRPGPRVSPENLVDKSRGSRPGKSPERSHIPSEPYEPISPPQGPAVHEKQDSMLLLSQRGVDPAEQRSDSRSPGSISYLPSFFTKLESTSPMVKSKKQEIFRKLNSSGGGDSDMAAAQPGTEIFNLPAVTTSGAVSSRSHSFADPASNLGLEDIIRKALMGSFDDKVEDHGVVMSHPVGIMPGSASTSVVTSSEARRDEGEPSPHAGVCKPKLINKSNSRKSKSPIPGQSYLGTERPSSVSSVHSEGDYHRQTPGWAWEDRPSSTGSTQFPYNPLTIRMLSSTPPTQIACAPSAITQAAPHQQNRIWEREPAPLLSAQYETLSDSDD
UniProt Q6PHQ9: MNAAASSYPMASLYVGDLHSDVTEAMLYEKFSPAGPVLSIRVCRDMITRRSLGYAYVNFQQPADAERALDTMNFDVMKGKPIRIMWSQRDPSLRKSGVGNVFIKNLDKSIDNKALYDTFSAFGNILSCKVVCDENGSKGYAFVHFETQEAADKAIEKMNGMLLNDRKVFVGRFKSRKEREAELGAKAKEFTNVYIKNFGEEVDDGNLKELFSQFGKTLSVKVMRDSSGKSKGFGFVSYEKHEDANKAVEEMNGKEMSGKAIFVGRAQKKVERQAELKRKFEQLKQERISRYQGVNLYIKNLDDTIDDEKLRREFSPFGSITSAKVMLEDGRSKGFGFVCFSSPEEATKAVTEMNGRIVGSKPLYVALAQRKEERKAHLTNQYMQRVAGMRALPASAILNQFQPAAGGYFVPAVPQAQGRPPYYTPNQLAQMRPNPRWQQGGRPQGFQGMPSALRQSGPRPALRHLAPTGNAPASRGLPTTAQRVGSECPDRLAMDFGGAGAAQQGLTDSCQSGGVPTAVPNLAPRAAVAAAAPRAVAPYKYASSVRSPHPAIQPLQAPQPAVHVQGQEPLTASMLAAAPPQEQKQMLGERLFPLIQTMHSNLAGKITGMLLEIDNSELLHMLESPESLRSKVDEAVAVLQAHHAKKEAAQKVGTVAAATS

| binding | Molecule |
| --- | --- |
| binds | poly(A)-binding protein cytoplasmic 4 (PABPC4), endogenous in MEF cells (from UniProt Q6PHQ9 1-660) |
| binds | exchange factor TBL1X (protein, UniProt Q9QXE7 1-527) MSITSDEVNFLVYRYLQESGFSHSAFTFGIESHISQSNINGTLVPPAALISILQKGLQYVEAEISINEDGTVFDGRPIESLSLIDAVMPDVVQTRQQAFREKLAQQQANAAAAAAAAAATATSTAATTPAAAAQQNPPKNGEATVNGEENGAHAINNHSKPMEIDGDVEIPPSKATVLRGHESEVFICAWNPVSDLLASGSGDSTARIWNLNENSNGGSTQLVLRHCIREGGHDVPSNKDVTSLDWNSDGTLLATGSYDGFARIWTEDGNLASTLGQHKGPIFALKWNKKGNYILSAGVDKTTIIWDAHTGEAKQQFPFHSAPALDVDWQNNTTFASCSTDMCIHVCRLGCDRPVKTFQGHTNEVNAIKWDPSGMLLASCSDDMTLKIWSMKQDACVHDLQAHSKEIYTIKWSPTGPATSNPNSNIMLASASFDSTVRLWDVERGVCIHTLTKHQEPVYSVAFSPDGKYLASGSFDKCVHIWNTQSGSLVHSYRGTGGIFEVCWNARGDKVGASASDGSVCVLDLRK |

— article PMC10203745
